Measured values: PubChem BioAssay AID926 (National Center for Advancing Translational Sciences (NCATS), 2007)
Some of the results follow.

Test: qHTS Assay for Agonists of the Thyroid Stimulating Hormone Receptor;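 also: the control signal comes from parental cells without the receptor; % of control where 0% means no effect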
Conditions: HEK293-CNG-TSHR cells (CNG channel as cAMP sensor), membrane potential dye, cAMP; measured here: parental cells max response

| SMILES | activation [%] |
| --- | --- |
| O=C(OC1CN2CCC1CC2)c1cccc(Cl)c1 (stereo not drawn) | 7.11 |
| Cc1nn(-c2ccccc2)c2c1P(=O)(N1CCOCC1)N(C)C(c1ccccc1)=N2 (stereo not drawn) | -0.719 |
| CN(CCCl)Cc1cc(Cl)c(NC2=NCCN2)c(Cl)c1 | -3.35 |
